In the supplement of paper PMC10849652:
Some of the results follow.

Protein sequences, listed by entry. Tags and fused reporters are not part of them. Lines headed by an entry give the natural chain unless they say otherwise; changes in a name come on top.
UniProt Q9HCK8: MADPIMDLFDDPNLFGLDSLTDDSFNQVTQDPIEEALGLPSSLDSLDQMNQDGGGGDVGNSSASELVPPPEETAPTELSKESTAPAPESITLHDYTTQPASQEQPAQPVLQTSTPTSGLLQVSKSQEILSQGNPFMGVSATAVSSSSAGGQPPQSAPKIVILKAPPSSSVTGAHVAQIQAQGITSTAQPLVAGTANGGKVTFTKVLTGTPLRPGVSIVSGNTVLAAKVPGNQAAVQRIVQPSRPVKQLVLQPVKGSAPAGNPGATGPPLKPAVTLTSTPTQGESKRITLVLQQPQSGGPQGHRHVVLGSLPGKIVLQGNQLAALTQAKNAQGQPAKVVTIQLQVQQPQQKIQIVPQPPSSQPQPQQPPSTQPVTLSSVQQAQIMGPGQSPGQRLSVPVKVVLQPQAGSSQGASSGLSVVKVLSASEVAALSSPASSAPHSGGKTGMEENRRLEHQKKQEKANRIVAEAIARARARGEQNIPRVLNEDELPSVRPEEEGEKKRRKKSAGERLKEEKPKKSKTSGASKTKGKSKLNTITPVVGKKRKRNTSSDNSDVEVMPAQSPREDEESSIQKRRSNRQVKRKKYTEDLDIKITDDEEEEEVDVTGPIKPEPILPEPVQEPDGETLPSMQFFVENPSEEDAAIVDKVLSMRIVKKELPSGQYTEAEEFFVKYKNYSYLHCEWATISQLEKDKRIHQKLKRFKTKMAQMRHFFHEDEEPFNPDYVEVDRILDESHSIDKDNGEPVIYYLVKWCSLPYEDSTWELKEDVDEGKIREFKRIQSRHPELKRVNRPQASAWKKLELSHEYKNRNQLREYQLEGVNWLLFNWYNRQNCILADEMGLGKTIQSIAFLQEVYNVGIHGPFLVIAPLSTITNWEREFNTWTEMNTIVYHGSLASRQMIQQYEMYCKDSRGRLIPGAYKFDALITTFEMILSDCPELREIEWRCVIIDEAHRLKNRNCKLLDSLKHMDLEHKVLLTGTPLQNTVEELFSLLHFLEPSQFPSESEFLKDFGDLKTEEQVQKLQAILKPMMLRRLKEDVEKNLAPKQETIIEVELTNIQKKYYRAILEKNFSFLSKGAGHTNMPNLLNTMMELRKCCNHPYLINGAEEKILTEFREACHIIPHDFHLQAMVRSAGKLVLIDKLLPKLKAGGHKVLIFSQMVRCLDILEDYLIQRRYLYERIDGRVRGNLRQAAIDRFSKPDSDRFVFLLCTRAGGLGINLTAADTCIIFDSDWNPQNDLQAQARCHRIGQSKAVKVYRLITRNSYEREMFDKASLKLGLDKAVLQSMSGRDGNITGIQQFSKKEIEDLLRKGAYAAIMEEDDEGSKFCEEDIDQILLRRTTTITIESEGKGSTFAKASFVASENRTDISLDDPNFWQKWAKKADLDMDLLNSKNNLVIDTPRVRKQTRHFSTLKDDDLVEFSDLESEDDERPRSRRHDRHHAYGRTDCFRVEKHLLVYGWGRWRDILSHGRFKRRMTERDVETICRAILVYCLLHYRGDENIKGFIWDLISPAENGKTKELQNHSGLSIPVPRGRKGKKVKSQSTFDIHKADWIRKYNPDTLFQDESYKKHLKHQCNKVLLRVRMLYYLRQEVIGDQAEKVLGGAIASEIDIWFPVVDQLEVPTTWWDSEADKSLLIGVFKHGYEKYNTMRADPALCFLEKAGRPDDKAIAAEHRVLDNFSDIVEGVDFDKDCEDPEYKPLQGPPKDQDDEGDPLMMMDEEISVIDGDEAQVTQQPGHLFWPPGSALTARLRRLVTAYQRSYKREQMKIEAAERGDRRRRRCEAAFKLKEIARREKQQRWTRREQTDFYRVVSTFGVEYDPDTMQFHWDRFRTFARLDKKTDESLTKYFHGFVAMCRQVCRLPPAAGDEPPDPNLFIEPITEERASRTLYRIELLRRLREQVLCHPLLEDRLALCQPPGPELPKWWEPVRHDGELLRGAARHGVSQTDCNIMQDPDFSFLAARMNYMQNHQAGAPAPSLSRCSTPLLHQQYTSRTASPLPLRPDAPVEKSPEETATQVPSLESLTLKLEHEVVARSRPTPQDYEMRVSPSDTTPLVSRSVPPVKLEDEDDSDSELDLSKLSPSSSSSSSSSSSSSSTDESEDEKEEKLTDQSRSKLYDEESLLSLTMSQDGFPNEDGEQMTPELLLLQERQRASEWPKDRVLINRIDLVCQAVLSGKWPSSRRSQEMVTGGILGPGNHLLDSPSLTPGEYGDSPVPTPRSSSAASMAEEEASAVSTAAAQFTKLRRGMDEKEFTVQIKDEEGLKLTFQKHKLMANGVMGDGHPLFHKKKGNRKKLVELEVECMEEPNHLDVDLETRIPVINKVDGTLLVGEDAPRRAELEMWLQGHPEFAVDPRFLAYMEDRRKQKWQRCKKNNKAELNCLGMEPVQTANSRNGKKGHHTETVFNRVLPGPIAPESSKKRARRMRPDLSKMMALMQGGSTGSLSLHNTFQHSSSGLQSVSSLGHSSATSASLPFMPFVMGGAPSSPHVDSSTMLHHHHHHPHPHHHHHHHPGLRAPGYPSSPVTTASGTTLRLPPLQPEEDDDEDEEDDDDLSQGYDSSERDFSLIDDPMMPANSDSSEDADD
UniProt Q49AH0, whole entry, looked up: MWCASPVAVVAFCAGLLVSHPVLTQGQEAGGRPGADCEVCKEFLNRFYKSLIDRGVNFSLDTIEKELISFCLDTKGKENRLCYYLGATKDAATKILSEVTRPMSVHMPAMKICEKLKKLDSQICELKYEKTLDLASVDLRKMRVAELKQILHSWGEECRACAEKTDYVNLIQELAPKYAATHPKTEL
UniProt P55290: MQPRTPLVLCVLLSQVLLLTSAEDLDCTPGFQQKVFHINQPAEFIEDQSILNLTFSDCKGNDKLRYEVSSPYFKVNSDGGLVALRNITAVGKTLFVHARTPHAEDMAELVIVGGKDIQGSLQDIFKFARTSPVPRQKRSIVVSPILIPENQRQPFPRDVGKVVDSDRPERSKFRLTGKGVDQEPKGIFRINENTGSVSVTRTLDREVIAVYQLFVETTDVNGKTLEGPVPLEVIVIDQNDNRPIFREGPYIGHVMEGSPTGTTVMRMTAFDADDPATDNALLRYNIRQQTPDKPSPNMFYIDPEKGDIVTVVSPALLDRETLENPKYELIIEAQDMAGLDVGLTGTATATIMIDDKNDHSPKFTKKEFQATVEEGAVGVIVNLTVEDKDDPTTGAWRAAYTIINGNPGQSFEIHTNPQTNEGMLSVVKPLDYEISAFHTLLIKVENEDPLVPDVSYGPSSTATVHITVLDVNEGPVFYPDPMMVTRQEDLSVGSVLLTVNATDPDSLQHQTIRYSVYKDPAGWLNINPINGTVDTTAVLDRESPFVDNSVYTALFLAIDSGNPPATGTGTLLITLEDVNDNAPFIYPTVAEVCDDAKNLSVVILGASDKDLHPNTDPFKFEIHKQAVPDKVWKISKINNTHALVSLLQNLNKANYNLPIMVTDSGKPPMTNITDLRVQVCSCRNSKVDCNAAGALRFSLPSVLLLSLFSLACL
UniProt Q86X02: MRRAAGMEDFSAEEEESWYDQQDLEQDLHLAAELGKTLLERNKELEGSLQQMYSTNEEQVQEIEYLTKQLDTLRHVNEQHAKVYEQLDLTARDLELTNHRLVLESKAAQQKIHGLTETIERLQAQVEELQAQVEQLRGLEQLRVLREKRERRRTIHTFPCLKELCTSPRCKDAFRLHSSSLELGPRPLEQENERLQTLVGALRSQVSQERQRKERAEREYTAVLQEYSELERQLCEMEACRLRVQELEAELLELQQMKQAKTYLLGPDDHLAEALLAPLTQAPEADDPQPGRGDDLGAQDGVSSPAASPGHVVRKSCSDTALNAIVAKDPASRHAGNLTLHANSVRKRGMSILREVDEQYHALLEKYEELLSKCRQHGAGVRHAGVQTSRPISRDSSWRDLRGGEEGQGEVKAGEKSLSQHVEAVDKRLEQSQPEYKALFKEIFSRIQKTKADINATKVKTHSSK
UniProt Q9NSP4: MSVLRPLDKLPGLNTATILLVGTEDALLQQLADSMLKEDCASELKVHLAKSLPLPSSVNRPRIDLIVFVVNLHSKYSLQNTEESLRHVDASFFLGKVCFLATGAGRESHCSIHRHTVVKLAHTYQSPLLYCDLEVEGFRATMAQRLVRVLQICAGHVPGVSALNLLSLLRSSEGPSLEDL
UniProt P17676: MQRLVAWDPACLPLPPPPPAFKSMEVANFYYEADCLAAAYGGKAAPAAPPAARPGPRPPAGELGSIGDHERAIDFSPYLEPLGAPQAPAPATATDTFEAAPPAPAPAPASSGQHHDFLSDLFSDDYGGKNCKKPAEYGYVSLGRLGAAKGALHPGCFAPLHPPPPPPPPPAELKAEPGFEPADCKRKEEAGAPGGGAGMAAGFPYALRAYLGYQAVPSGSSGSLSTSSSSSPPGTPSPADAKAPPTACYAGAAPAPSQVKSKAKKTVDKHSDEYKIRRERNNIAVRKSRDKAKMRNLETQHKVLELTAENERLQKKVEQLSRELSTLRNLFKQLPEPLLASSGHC
UniProt Q9UKI2, whole entry, looked up: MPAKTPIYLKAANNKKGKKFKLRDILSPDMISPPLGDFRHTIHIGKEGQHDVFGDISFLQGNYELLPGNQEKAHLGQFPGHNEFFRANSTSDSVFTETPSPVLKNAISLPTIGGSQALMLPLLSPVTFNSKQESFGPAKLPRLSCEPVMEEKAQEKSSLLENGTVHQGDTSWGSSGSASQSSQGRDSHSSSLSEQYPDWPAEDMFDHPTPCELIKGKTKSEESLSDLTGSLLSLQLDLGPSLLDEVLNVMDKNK
UniProt Q5SW79: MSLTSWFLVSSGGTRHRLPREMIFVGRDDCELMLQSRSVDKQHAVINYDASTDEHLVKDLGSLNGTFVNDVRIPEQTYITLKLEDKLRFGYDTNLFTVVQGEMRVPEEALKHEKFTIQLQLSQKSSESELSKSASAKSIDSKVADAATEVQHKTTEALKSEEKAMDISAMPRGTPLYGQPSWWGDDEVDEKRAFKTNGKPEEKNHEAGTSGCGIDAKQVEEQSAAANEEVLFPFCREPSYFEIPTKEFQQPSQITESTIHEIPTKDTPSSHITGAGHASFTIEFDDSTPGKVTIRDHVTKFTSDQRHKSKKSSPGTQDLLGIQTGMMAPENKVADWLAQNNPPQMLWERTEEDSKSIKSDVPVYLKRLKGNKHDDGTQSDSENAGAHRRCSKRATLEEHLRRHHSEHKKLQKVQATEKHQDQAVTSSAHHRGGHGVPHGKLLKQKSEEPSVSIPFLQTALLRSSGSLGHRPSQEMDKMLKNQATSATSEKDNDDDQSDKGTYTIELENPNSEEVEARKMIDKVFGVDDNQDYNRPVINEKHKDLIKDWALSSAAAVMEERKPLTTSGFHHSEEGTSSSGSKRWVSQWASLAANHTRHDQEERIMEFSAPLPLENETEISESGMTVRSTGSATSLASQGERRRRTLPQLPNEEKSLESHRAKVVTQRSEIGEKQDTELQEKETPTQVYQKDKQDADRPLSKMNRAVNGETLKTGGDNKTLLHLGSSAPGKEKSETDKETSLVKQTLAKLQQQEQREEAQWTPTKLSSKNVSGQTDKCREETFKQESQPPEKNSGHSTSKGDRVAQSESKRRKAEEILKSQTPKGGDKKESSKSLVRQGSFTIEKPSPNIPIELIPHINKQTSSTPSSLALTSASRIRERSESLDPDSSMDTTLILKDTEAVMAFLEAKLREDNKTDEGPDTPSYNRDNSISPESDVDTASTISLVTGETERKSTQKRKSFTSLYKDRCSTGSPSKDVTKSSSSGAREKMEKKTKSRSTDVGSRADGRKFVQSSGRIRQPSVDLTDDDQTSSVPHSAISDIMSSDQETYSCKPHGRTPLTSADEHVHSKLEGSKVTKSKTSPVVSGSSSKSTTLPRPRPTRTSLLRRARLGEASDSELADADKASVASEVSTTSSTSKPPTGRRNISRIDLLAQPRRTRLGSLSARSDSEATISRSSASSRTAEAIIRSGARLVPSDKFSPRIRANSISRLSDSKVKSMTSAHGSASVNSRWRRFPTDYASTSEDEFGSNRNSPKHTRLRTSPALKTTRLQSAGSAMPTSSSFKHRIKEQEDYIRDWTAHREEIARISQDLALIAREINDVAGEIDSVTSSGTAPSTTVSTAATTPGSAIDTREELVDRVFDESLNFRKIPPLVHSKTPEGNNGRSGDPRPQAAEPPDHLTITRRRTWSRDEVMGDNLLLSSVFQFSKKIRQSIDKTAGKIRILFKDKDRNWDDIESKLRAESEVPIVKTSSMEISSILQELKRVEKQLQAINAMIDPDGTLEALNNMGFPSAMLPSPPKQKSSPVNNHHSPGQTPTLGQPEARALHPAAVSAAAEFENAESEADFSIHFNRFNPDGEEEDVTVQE
UniProt Q7L2Z9: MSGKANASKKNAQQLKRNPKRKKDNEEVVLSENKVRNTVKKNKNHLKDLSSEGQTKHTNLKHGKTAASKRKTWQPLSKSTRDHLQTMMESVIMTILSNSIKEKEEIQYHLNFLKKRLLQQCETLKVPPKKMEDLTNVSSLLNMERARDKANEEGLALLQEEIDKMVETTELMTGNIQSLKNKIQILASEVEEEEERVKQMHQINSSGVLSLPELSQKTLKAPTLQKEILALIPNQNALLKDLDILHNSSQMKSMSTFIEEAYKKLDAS

How the values were obtained:
Test in all cases: log2 fold change, soluble protein after heating vs DMSO (PISA); higher = thermal stabilisation; K562 cells, 10 uM, 30 min; active = over 0.2 and 3.5 SD of the protein, either way, in both replicates (recomputed)
[1] = compound: CC1=C(C=C(C=C1)NC(=O)C2=CC(=CC=C2)N(C)C)NC(=O)C3=CC=C(C=C3)O
In short: (§1)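 K562 cells at 2×10^6 cells/mL were treated with 10 μM compound for 30 min. Aliquots were heated for 3 min across 48°C-58°C, pooled, and extracted in PBS with 0.5% NP-40 at 4°C; soluble protein was the supernatant after 21,000xg for 90 min. Soluble protein was quantified by TMTpro 16plex LC-MS/MS with channel sums equalised, and reported as log2 fold change in thermal stability against DMSO controls, with values from duplicates.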

[2] = compound: CCCCN(Cc1ccc(C(=O)NO)cc1)C(=O)Nc1ccccc1 [Nexturastat A]
In short: as §1

[3] = compound: CCN(CCCOc1ccc2c(Nc3cc(CC(=O)Nc4cccc(F)c4)[nH]n3)ncnc2c1)CCOP(=O)(O)O [barasertib]
In short: as §1

[4] = compound: CC[C@H](C)[C@@H](C(=O)N[C@@H]([C@@H](C)O)C(=O)N[C@@H](CC(C)C)C(=O)[C@]1(CO1)C)NC(=O)[C@H]([C@@H](C)CC)N(C)C(=O)C [epoxomicin]
In short: as §1

[5] = compound: CN(CCOC1=CC=C(C=C1)C[C@H]2C(=O)NC(=O)S2)C3=CC=CC=N3 (racemic) [rosiglitazone]
In short: as §1

[6] = compound: CC1=CC=C(C=C1)SC2=C3C=C(SC3=CN=C2)C(=O)N
In short: as §1

[7] = compound: CCCS(=O)(=O)Nc1ccc(F)c(C(=O)c2c[nH]c3ncc(-c4ccc(Cl)cc4)cc23)c1F [vemurafenib]
In short: as §1

[8] = compound: CCCS(=O)(=O)Nc1ccc(F)c(C(=O)c2c[nH]c3ncc(Cl)cc23)c1F
In short: as §1

[9] = compound: CCCc1cc(C)[nH]c(=O)c1CNC(=O)c1cc(-c2ccnc(N3CCN(C)CC3)c2)cc2c1cnn2C(C)C
In short: as §1

[10] = compound: CCN(CC)Cc1ccc2cc(COC(=O)Nc3ccc(C(=O)NO)cc3)ccc2c1 [givinostat]
In short: as §1

[11] = compound: CC[C@@H]1C(=O)N(C)c2cnc(Nc3ccc(C(=O)N[C@H]4CC[C@H](N5CCN(CC6CC6)CC5)CC4)cc3OC)nc2N1C(C)C [volasertib]
In short: as §1

[12] = compound: CCn1c(C(=O)N(C2CC2)C2CC2)cc2c3c(ncn3C)c(Nc3cc(C)n(C)n3)nc21
In short: as §1

[13] = compound: CN(C)CC(=O)Nc1ccc2[nH]c(=O)c3ccccc3c2c1
In short: as §1

[14] = compound: CC1=NC(=CC=C1)C2=C(N=C(N2)C(C)(C)C)C3=CC4=NC=CN=C4C=C3
In short: as §1

[15] = compound: CN1C2=C(C3=C1C(=O)N(N=C3)CC4=CC(=CC=C4)N)SC(=C2)S(=O)C
In short: as §1

[16] = compound: CC[C@H](C)N1C=C(C2=C(C=C(C=C21)C3=CN=C(C=C3)N4CCNCC4)C(=O)NCC5=C(C=C(NC5=O)C)C)C
In short: as §1

[17] = compound: CC[C@@H]1C(=O)N(C)c2cnc(Nc3ccc(C(=O)NC4CCN(C)CC4)cc3OC)nc2N1C1CCCC1
In short: as §1

[18] = compound: CCn1cc(-c2ccnc3[nH]c(-c4cccc(CN(C)C)c4)cc23)c(-c2ccc(NC(=O)N(C)C)cc2)n1
In short: as §1

[19] = compound: CN1CCC(CNc2ccc3ncc(-c4cccc(OC(F)(F)F)c4)n3n2)CC1
In short: as §1

[20] = compound: CC1=C(C=C(C=C1)NC(=O)C2=CC(=CC=C2)C(C)(C)C#N)NC3=CC4=C(C=C3)N=CN(C4=O)C
In short: as §1

Measured: log2 fold change

CHD8 (UniProt Q9HCK8)
inactive: [1] -0.009 | [2] 0.032 | [3] -0.024 | [4] 0.104 | [5] 0.109

CEFIP (UniProt Q711Q0)
inactive: [6] -0.022 | [2] 0.145 | [7] 0.183 | [8] 0.012 | [9] -0.002 | [10] -0.038 | [3] 0.168 | [11] -0.043 | [4] -0.089 | [12] 0 | [13] -0.208 | [5] -0.127

CDNF (UniProt Q49AH0)
inactive: [14] 0.191 | [7] 0.01 | [13] 0.125 | [15] -0.222

CDKN2AIPNL (UniProt Q96HQ2)
inactive: [16] -0.09

CDH13 isoform 4 (UniProt P55290)
inactive: [15] -0.138

CEMIP2 (UniProt Q9UHN6)
active: [6] 0.592
inactive: [1] 0.043 | [14] 0.033 | [2] 0.02 | [7] -0.045 | [8] -0.1 | [9] -0.168 | [10] -0.052 | [3] -0.012 | [17] -0.209 | [11] -0.364 | [16] -0.142 | [4] 0.058 | [18] -0.088 | [13] -0.049 | [15] 0.032 | [19] 0.123

CDR2L (UniProt Q86X02)
inactive: [1] -0.005 | [7] -0.068 | [10] -0.015 | [17] -0.168 | [12] -0.052 | [18] -0.072 | [13] 0.052 | [15] -0.034 | [19] 0.03

CENPP (UniProt Q6IPU0)
inactive: [1] -0.053 | [6] -0.03 | [14] -0.046 | [2] 0.204 | [8] -0.148 | [9] 0.014 | [10] -0.019 | [3] -0.015 | [11] 0.086 | [16] 0.13 | [4] -0.062 | [12] -0.168 | [18] -0.023 | [5] -0.049 | [15] -0.027 | [19] 0.14

CER1 (UniProt O95813)
inactive: [18] 1.5 | [19] -0.024

CDC6 (UniProt Q99741)
inactive: [2] 0.453 | [4] 0.16 | [15] 0.165

CENPM (UniProt Q9NSP4)
inactive: [10] 0.075 | [12] -0.117 | [15] 0.065

CFL1 (UniProt E9PP50)
inactive: [10] -0.04 | [16] 0.383 | [12] 0.071 | [18] -0.143 | [19] 0.045

CHMP2A (UniProt M0R1T5)
inactive: [6] -0.013 | [8] 0.008 | [9] -0.038 | [11] 0.052

CEBPB (UniProt P17676)
inactive: [1] 0.043 | [6] 0.039 | [14] -0.108 | [2] 0.137 | [8] 0.006 | [9] 0.014 | [10] -0.145 | [3] -0.087 | [17] 0.109 | [11] -0.052 | [16] -0.09 | [4] -0.14 | [12] 0.122 | [18] 0.113 | [5] 0.027 | [15] 0.006 | [19] 0.213

CDC42EP3 (UniProt Q9UKI2)
inactive: [2] -0.076 | [9] -0.318 | [10] -0.113 | [4] 0.124 | [12] 0.217

CDK2AP2 (UniProt O75956)
inactive: [1] -0.14 | [14] 0.021 | [2] 0.022 | [9] -0.065 | [10] -0.154 | [3] -0.029 | [17] 0.078 | [16] -0.04 | [4] 0.137

CEP170 isoform 3 (UniProt Q5SW79)
inactive: [14] 0.054 | [10] -0.074 | [3] 0.018 | [12] 0.183 | [5] 0.249

CENPC (UniProt Q03188)
inactive: [6] -0.071 | [14] -0.189 | [2] 0.124 | [7] 0.076 | [8] -0.039 | [10] -0.422 | [17] 0 | [11] -0.095 | [16] -0.095 | [4] -0.061 | [12] 0.091 | [13] -0.127 | [15] 0.111

Looked up one by one from the entries so far (2):
CEP170 isoform 3 (UniProt Q5SW79)
inactive: [14] 0.054 | [10] -0.074 | [3] 0.018 | [12] 0.183 | [5] 0.249

CDC42EP3 (UniProt Q9UKI2)
inactive: [2] -0.076 | [9] -0.318 | [10] -0.113 | [4] 0.124 | [12] 0.217

(further entries)

CENPQ (UniProt Q7L2Z9)
inactive: [20] -0.025 | [2] -0.116 | [9] 0.122 | [10] 0.225 | [16] -0.01 | [4] 0.069 | [12] -0.032 | [15] -0.019
